This is an account of results in PubChem BioAssay AID2685 (National Center for Advancing Translational Sciences (NCATS), 2010).

This test is described as follows: qHTS Assay for Lipid Storage Modulators in Drosophila S3 Cells.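 On cell number change: cells counted by Cell Tracker Red CMTPX staining in the red channel.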 To be noted: BODIPY lipid droplet fluorescence, 18-24 h; for cell number change: measured here: cell count max response, cells fed with added oleic acid. In outline: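 Drosophila S3 cells loaded with oleic acid (400 uM, as added) and compounds at several concentrations; lipid droplets imaged by 488-nm laser-scanning cytometry, 500–530 nm intensity and object ratio to cell channel. Percent activity normalized to 20 uM Triacsin C.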
For orientation: In qHTS, concentration-response curves come from the screen itself.

Setting [1] is: measured here: lipid fluorescence (Fed channel) AC50, cells fed with added oleic acid.
The mark [2] stands for this setting: measured here: cell number channel AC50, cells fed with added oleic acid.

Some of the results follow. The main result of the screen is listed elsewhere. These columns were measured beside it and carry no call. Compounds called inactive in the main read-out are mostly missing here. The note in brackets gives the kind of curve behind each potency; many fits are weak.

One may read the AC50 as the midpoint of the concentration-response curve, whichever way the signal moves. High values mean activity only at high concentration, low ones activity at low concentration.

With `O=C(CN(C(=O)c1nsc(Cl)c1Cl)c1ccc(F)cc1)NC1CCCC1`, the cell number change stood at 6.35%. Further, under setting [1], the AC50 is 14.6 µM [rising, partial curve]. Take `COc1ccc(CCC(=O)Nc2nc3ccccc3[nH]2)cc1OC`: the cell number change was 96.1%. For the same molecule, the AC50 under setting [2] was 1.3 µM [rising, full curve]. Moreover, under setting [1], the AC50 is 2.31 µM [rising, full curve].

Take `COc1ccc(NC(=O)c2cc(-c3ccccc3Cl)on2)cc1`: the cell number change worked out at 35.5%. Further, the AC50 under setting [2] is 18.4 µM [rising, partial curve, poor fit]. As to `CC(C)C(=O)Nc1cccc(C(=O)Nc2cc([N+](=O)[O-])ccc2F)c1`, the AC50 under setting [1] is 0.116 µM [rising, full curve, poor fit]. For the molecule `CCc1c(C)sc(NC(=O)c2ccco2)c1C#N`, the cell number change was -8.29%. The AC50 under setting [1] is 6.51 µM [rising, single point]. In the case of `COc1ccc(CCC(=O)N2CCN(S(=O)(=O)c3cccc(C(F)(F)F)c3)CC2)cc1OC`, the cell number change was found to be 6.97%. Besides, the AC50 under setting [1] is 4.61 µM [rising, full curve, poor fit]. On to `O=C(CCC1CCCC1)N=C1SC2CS(=O)(=O)CC2N1Cc1ccccc1` (stereo not given), for which the cell number change was 9.92%. Besides, under setting [1], the AC50 is 29.1 µM [falling, single point]. As to `O=C(NCC1CCCO1)c1cccc(NC(=O)c2ccccc2)c1` (stereo not given), the cell number change was -16.1%. Also, the AC50 under setting [1] is 0.00461 µM [falling, full curve, poor fit]. `CSc1cccc(NC(=O)CN(Cc2ccc(Cl)cc2)S(C)(=O)=O)c1`: the cell number change worked out at 29.4%. `Cc1csc(SCC(=O)Nc2cc(S(=O)(=O)N3CCOCC3)ccc2N2CCOCC2)n1`: the cell number change stood at 8.95%. The AC50 under setting [1] was 29.1 µM [falling, single point].

Take `COc1cc(NC(=S)NCCCN2CCOCC2)cc(OC)c1OC`: the cell number change is -45.4%. Moreover, the AC50 under setting [2] is 0.92 µM [falling, full curve]. Take `COc1cc(/C=N/NC(=O)CN2CCOCC2)ccc1OCc1ccccc1`: the cell number change is 7.42%. The AC50 under setting [2] was 0.82 µM [falling, full curve, poor fit].

`COc1cccc(NC(=O)Cc2nnc(SCCOc3ccccc3)n2C)c1`: the cell number change is 9.53%. Still for that read-out and setting: in the case of `Cc1cc(C)nc(NS(=O)(=O)c2ccc(NC(=O)c3snnc3C)cc2)n1` it was 8.85%.

On to `CC(=O)Nc1sc2c(c1C(c1ccccn1)N1CCCC1)CCCC2` (stereo not given), for which the cell number change was -24.9%. The AC50 under setting [1] was 0.103 µM [falling, full curve, poor fit]. As to `CCC1CCC2(CC1)NC(=O)N(CC(=O)Nc1ccc(OC)cc1)C2=O` (stereo not given), the cell number change was -1.41%. Moreover, the AC50 under setting [1] was 0.00461 µM [rising, full curve, poor fit]. Consider `Cc1cc(C)c(S(=O)(=O)N2CCCOC2CNC(=O)C(=O)NCCc2c[nH]c3ccccc23)c(C)c1` (stereo not given), for which the cell number change was -70.6%. The AC50 under setting [2] is 20.6 µM [falling, partial curve]. Moreover, under setting [1], the AC50 was 8.2 µM [falling, partial curve]. For `O=[N+]([O-])c1ccc(OCC(O)CN(C2CCCCC2)C2CCCCC2)cc1` (stereo not given), the cell number change was -11.7%. The AC50 under setting [1] is 0.82 µM [falling, partial curve, poor fit]. Regarding `C/C(CC(=O)Nc1ccc(F)cc1F)=N\NC(=O)C(=O)N1CCCCC1`, the cell number change was -0.952%. The AC50 under setting [1] was 29.1 µM [rising, single point]. Take `COC(=O)COn1c(SCC(=O)OC)nc2ccccc2c1=O`: the cell number change is -20.8%. Under setting [2], the AC50 was 4.11 µM [falling, full curve, poor fit]. The AC50 under setting [1] was 4.11 µM [falling, full curve, poor fit]. For `Cc1cc(C)n2ncc(C(=O)NCc3ccc(Cl)cc3)c2n1`, the cell number change turned out to be 68.1%. Besides, under setting [2], the AC50 was 25.9 µM [rising, partial curve]. The AC50 under setting [1] is 0.259 µM [rising, full curve]. As to `CC(=O)Nc1ccc(NC(=O)COc2ccc(S(=O)(=O)N3CCCC3)cc2C)cc1`, the cell number change came to 2.52%. For the same molecule, the AC50 under setting [1] was 0.291 µM [rising, partial curve, poor fit]. Take `COc1cccc(NC(=O)CN(C)C(=O)COc2ccccc2Cc2ccccc2)c1`: the cell number change is -4.69%. In addition, the AC50 under setting [1] is 25.9 µM [falling, single point]. As to `Cc1ccc(C(=O)N/N=C\c2cc3c(cc2Br)OCO3)s1`, the cell number change came out at 1.43%. Also, the AC50 under setting [2] was 1.16 µM [rising, partial curve]. Under setting [1], the AC50 was 0.116 µM [rising, full curve]. Take `C(=N\N(c1ccccc1)c1ccccc1)/c1ccc(N2CCOCC2)s1`: the half-maximal activity concentration (AC50) runs as follows: under setting [2], 6.51 µM [rising, single point]; under setting [1], 18.4 µM [falling, partial curve]. With `COc1ccc(Nc2nc(C)cc(C)c2C#N)cc1OC`, the cell number change was found to be 25.3%. In addition, under setting [1], the AC50 was 2.59 µM [rising, single point]. With `COc1ccc(N2CCN(C(=O)CN(c3ccccc3)S(=O)(=O)c3ccc(OC)cc3)CC2)cc1`, the cell number change was 24.7%. The AC50 under setting [2] is 0.651 µM [rising, single point]. Further, the AC50 under setting [1] is 29.1 µM [rising, single point].

`Cc1ncn(-c2ccc(C(=O)Oc3ccccc3)cn2)n1`: the cell number change was -22.3%. On the same count and under the same terms, in the case of `CC(NC(=O)CCc1ccccc1)c1ccc2c(c1)OCO2` (stereo not given) it was -14.7%.

As for `O=c1c2ccccc2cnn1Cc1ccc(Cl)c(Cl)c1`, the cell number change is -9.52%. Under setting [1], the AC50 was 3.66 µM [falling, single point].

Take `O=C1NC(Nc2nccs2)(C(F)(F)F)C(=O)N1CCc1ccccc1` (stereo not given): the cell number change was 78%. The AC50 under setting [2] is 8.2 µM [rising, partial curve]. The AC50 under setting [1] was 9.2 µM [rising, partial curve].

As for `CCOC(=O)c1c(NC(=O)CSc2nnc(C)o2)sc(C)c1C`, the cell number change is 4.88%. Further, under setting [1], the AC50 is 0.0092 µM [rising, full curve, poor fit]. As to `CCCN1CCC(=O)N(CCN=[N+]=[N-])CC1`, the cell number change was found to be 18.4%. In addition, the AC50 under setting [1] was 4.11 µM [rising, full curve]. `C=CCN1CC(C(=O)N2CCC(Cc3ccc(Cl)cc3)(C(=O)OCC)CC2)CC1=O` (stereo not given): the cell number change was 5.73%. For `CCOC(=O)N1CCC(NC(=O)C(Cc2ccccc2)NC(=O)c2ccco2)CC1` (stereo not given), the cell number change worked out at 54.4%. Besides, under setting [1], the AC50 is 6.51 µM [falling, single point]. Turning to `COc1cc(OC)cc(C2C(C#N)=C(N)Oc3n[nH]c(-c4cccnc4)c32)c1` (stereo not given), the cell number change is -22.7%. Moreover, the AC50 under setting [1] was 8.2 µM [rising, partial curve]. `O=C(CN1CCSC1=O)N1CCN(S(=O)(=O)c2ccc(Cl)cc2)CC1`: the cell number change was -11.4%. Also, the AC50 under setting [1] is 10.3 µM [rising, partial curve]. As to `COC(=O)c1cccc(NC(=O)CCNC(=O)c2ccc([N+](=O)[O-])cc2)c1`, under setting [2], the AC50 was 0.0731 µM [rising, full curve, poor fit].
